# According to PubChem BioAssay AID1347076 (National Center for Advancing Translational Sciences (NCATS), 2019):
# In all, about 400,000 compounds went through this assay and about 13,000 (3.2%) were called active. The inconclusive results got no clear call from the source; some entries with a clear call stand among them for comparison. Calls follow the shape of the dose curve; as a rule, active = well fitted cell-killing curve with a large enough effect; inconclusive = small, poorly fitted or top-dose-only effect, or effect the other way; inactive = flat fitted curve, though single readings scatter. A potency beside an inconclusive call is a rough fit, not a confirmed value.
# Experiment: qHTS assay for MDR1-selective chemotherapeutics: Primary screen using the drug-selected MDR subline cells KB-V1; also: nearly all actives have a fitted effect of over 60% in size
# Settings: KB-V1 MDR cells viability, CellTiter-Glo, 72 h; activity change, negative = cytotoxicity: at 46.1 µM (top of the series)
# In short: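 Compound-treated KB-V1 multidrug-resistant cells, 72 h, 37 degrees C; viability by CellTiter-Glo. Fitted qHTS curves give the values.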
# % is scaled to controls: 0 for no effect and ±100 for the full control effect; potency is read from the fitted curve at half-maximal effect.
Compound,Potency,"activity change, negative = cytotoxicity"
CCNC(=S)NNC(=O)Cc1ccccc1,"inconclusive: 29.1 µM [rising, single point]",
CCOC(=O)C1CCCN(c2ncnc3c2cnn3-c2ccc(C)c(Cl)c2)C1 (centres undefined),"inconclusive: 23.1 µM [cytotoxic, single point]",
CCCCn1c(N)c(N(C(=O)CSc2nncn2-c2ccccc2C)C2CCCC2)c(=O)[nH]c1=O,,inactive: 0%
CCC(/C=N/NC(=O)C(N)=O)CC,,inactive: 2.76%
Cc1nnc(NC(=O)c2nc(S(=O)(=O)Cc3ccccc3)ncc2Cl)s1,"inconclusive: 29.1 µM [cytotoxic, single point]",
CCOc1ccc(OCC(=O)OCC(=O)Nc2ccccc2C#N)cc1,"inconclusive: 29.1 µM [rising, single point]",
CCN(CC)CCNC(=O)c1ccc(NC(=O)c2c(C)nn(-c3ccc(F)cc3)c2Cl)cc1,,inactive: 0.394%
COc1ccccc1-[n+]1c(C)cc(/C=C2\Sc3ccccc3N2C)cc1C,active: 9.2 µM,
CCc1ccccc1NC(=O)c1cc(S(=O)(=O)NCCc2ccc(OC)c(OC)c2)ccc1F,"inconclusive: 3.66 µM [cytotoxic, full curve, poor fit]",
Cc1cc2nc3ccc(=[N+](C)C)cc-3sc2cc1N,active: 16.4 µM,
CC(=O)NC(c1ccc(N(C)C)cc1)c1cc(Cl)c2cccnc2c1O (centres undefined),"inconclusive: 4.11 µM [cytotoxic, partial curve, poor fit]",
Cn1sc2ccccc2c1=O,"inconclusive: 16.4 µM [rising, single point]",
Cc1cccnc1NC(=O)c1cc2c(=O)oc3ccccc3c2s1,"inconclusive: 25.9 µM [cytotoxic, single point]",
O=C(NCCC1CCCCN1S(=O)(=O)c1ccccc1)C(=O)NC1CCCC1 (centres undefined),"inconclusive: 4.61 µM [cytotoxic, full curve]",
CCCCCCc1ccc(N2C[C@H](CCCCC)[C@@H](CC(=O)NCc3ccc(OC)cc3)C2=O)cc1,"inconclusive: 32.6 µM [cytotoxic, single point]",
Cc1cccc(NC(=O)C(=O)NCC(c2cccnc2)N2CCOCC2)c1 (centres undefined),,inactive: 12.3%
CCc1cc(-c2nnn(CCC3COCCO3)c2CC)cc(CC)c1-c1cn(CCc2c[nH]c3ccccc23)nn1 (centres undefined),"inconclusive: 18.4 µM [cytotoxic, single point]",
O=c1c2ccccc2n(Cc2ccc(F)cc2)c(=O)n1C1CCCC1,"inconclusive: 29.1 µM [cytotoxic, single point]",
COC(=O)c1cc(NC(=O)c2cc(-c3ccc(Cl)cc3)oc2C(F)(F)F)ccc1N1CCOCC1,"inconclusive: 10.3 µM [cytotoxic, partial curve, poor fit]",
CC1=CC(C)(C)n2c(O)c(N=N)c3cc(C)cc1c32,"inconclusive: 29.1 µM [cytotoxic, single point]",
CSCCCNC(=S)N1CCN(c2ccc(C(C)=O)cc2)CC1,"inconclusive: 20.6 µM [cytotoxic, single point]",
Clc1ccc(C2CSc3c4ncnc-4ncn32)cc1 (centres undefined),"inconclusive: 23.1 µM [rising, single point]",

Compound,Potency,"activity change, negative = cytotoxicity"
COc1nc(-c2cccs2)cc(-c2ccc(C)cc2)c1C#N,active: 11.2 µM,
COC(=O)[C@@]12CCCCN1[C@H](c1ccc(SC3CCCCC3)cc1)[C@H]1C(=O)N(C)C(=O)[C@H]12,,inactive: -25.8%
O=C(NCCc1ccccc1)C(=O)NN=C1CCCC1,"inconclusive: 29.1 µM [rising, single point]",
CCN(CC)c1ncnc2c1sc1nc(C)cc(C)c12,"inconclusive: 7.31 µM [cytotoxic, partial curve]",
CCOC(=O)CCCCC(=O)c1[nH]c(=O)[nH]c1C[n+]1ccc(C)cc1,,inactive: 3.26%
O=C(Nc1ccc(F)cc1F)C1CCCN(c2ncnc3c2nc2n3CCCCC2)C1 (centres undefined),,inactive: -28%
COc1ccccc1NC(=O)C(C)OC(=O)/C(=C/c1ccccc1)NC(C)=O (centres undefined),"inconclusive: 23.1 µM [cytotoxic, single point]",
CC(=O)C1C(=O)CC(c2ccc(Cl)cc2)CC1=O (centres undefined),"inconclusive: 29.1 µM [rising, partial curve, poor fit]",
CCCCN(C)CCNC(=O)c1cn(C)c(=O)c2c1c1ccccc1n2C,,inactive: 8.94%
COc1ccc(N2C[C@H](C)[C@@H](CC(=O)Nc3ccc(Br)cc3)C2=O)cc1,,inactive: -8.28%
NCCc1nnc(SCc2ccc(Cl)cc2)o1,"inconclusive: 16.4 µM [rising, single point]",
COc1ccccc1C(=O)Nc1nc2ccc(S(=O)(=O)N3CCCC3)cc2s1,"inconclusive: 11.6 µM [rising, partial curve, poor fit]",
CCN(c1ccccc1)S(=O)(=O)c1ccc(C(=O)Nc2ncccc2O)cc1,"inconclusive: 13 µM [cytotoxic, partial curve, poor fit]",
Cc1ccc2cc(CCNC(=O)CC(C)(C)C)c(=O)[nH]c2c1C,"inconclusive: 14.6 µM [cytotoxic, partial curve, poor fit]",
COc1cccc(NC(=O)CN(C)C(=O)c2ccc3[nH]c4c(c3c2)CC(C)CC4)c1 (centres undefined),"inconclusive: 29.1 µM [cytotoxic, partial curve, poor fit]",
FC(F)(F)c1ccc(CN2C[C@@H]3C(c4ccc(Cl)nc4)C4(c5ccccc5)CC3(C4)[C@H]2c2ccccc2)cc1 (some centres undefined),"inconclusive: 29.1 µM [cytotoxic, single point]",
N/C(=N/OCc1cccc([N+](=O)[O-])c1)c1nonc1N,"inconclusive: 20.6 µM [cytotoxic, single point]",
CCOC(=O)N1CCN(C2CC(=O)N(c3ccc(F)cc3)C2=O)CC1 (centres undefined),,inactive: 1.23%
CC(C)c1ccc(C(=O)N2CCOCC2c2cc(C(=O)Nc3ccccc3)no2)cc1 (centres undefined),,inactive: 0.674%
CCCCC(CC)Cn1c(O)c(/C=C2\C=NN=C2c2ccccc2)sc1=S (centres undefined),"inconclusive: 18.4 µM [cytotoxic, single point]",
Cc1ccc(Nc2c(-c3ccc(C)cc3)nc3cnccn23)cc1,,inactive: 9.35%
CC1c2cc3c(cc2CCN1C(=O)c1cccc(Cl)c1)OCCCO3 (centres undefined),active: 5.8 µM,
